# The other results are listed elsewhere or left out. Small differences around the control level are noise.
# Amino acid sequences for entries named in this document (tags omitted). A change or cut given only in a name is not applied to a line headed by its entry.
# UniProt A8CG34, whole entry: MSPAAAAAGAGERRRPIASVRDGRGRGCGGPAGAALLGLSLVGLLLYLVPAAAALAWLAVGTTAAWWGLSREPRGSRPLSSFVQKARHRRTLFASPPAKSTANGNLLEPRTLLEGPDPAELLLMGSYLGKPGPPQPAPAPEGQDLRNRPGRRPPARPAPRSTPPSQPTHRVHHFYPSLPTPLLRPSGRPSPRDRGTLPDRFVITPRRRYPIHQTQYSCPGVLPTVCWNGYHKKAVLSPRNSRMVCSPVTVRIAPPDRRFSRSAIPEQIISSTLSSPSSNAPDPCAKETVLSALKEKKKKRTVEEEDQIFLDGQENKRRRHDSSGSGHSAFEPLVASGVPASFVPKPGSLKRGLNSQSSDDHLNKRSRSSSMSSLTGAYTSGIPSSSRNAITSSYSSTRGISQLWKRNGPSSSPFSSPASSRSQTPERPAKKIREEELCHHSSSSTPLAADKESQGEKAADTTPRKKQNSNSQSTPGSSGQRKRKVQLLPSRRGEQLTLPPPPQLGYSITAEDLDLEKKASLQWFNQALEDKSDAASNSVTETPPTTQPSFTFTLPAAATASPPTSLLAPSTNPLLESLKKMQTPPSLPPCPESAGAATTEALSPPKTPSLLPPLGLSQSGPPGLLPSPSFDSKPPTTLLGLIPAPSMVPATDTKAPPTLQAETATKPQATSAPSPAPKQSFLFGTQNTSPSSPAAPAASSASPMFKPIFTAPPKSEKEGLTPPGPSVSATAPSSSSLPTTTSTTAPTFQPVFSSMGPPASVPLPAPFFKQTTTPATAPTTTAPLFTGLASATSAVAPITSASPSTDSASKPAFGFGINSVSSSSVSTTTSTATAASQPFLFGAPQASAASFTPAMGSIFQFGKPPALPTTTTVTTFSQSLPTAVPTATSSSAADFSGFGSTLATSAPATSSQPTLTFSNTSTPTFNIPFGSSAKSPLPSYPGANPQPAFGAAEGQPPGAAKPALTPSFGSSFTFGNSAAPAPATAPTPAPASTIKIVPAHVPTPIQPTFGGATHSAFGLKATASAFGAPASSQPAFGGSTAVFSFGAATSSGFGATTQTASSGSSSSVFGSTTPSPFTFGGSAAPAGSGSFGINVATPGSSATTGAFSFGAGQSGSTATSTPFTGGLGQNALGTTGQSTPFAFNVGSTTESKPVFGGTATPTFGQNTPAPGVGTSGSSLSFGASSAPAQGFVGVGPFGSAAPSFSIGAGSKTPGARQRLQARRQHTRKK
# UniProt A8MPP1: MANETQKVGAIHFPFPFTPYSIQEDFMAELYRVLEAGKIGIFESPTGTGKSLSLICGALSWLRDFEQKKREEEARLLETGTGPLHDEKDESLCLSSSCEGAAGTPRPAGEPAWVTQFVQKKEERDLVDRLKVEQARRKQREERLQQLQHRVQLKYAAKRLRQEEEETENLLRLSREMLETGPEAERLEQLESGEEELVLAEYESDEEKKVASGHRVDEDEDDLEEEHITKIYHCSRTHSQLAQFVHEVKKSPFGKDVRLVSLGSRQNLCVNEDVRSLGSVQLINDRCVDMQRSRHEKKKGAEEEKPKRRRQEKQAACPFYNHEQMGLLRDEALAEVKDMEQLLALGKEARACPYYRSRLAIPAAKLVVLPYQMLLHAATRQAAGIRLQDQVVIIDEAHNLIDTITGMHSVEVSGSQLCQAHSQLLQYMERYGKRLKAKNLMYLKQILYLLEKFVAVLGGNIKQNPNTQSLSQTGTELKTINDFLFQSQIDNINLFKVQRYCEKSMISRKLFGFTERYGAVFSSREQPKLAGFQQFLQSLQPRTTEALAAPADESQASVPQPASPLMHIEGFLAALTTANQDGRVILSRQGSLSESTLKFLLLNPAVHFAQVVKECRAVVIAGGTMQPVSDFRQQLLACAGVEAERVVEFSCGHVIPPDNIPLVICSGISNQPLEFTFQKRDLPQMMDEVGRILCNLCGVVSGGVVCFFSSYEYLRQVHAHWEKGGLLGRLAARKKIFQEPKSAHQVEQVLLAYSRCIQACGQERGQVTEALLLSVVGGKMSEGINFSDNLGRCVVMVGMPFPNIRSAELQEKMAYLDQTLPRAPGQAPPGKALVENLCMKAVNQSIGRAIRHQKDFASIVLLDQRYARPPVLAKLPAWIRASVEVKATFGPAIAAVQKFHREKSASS
# UniProt A6NI28: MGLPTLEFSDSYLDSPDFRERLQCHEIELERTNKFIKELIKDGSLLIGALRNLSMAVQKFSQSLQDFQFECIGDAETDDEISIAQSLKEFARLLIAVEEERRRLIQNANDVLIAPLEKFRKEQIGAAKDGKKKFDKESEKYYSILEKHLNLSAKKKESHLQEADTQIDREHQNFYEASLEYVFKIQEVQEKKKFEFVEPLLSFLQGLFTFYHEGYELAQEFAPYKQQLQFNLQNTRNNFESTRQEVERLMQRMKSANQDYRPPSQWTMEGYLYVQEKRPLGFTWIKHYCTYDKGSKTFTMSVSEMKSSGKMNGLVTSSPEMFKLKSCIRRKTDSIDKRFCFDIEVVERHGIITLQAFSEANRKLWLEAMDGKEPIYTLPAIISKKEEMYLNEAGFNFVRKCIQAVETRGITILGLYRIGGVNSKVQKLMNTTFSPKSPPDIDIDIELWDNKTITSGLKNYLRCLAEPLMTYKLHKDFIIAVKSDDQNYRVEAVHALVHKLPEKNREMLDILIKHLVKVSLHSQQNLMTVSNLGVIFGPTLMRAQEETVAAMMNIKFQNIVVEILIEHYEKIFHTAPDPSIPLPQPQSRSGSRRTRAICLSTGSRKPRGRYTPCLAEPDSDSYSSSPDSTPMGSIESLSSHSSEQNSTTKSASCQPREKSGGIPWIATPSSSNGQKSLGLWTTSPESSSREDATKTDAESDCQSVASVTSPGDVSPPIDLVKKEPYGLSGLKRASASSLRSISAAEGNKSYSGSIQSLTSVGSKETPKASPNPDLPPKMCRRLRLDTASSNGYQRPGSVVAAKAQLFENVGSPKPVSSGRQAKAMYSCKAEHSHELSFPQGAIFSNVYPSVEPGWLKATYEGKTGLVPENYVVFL
# UniProt A6NM28: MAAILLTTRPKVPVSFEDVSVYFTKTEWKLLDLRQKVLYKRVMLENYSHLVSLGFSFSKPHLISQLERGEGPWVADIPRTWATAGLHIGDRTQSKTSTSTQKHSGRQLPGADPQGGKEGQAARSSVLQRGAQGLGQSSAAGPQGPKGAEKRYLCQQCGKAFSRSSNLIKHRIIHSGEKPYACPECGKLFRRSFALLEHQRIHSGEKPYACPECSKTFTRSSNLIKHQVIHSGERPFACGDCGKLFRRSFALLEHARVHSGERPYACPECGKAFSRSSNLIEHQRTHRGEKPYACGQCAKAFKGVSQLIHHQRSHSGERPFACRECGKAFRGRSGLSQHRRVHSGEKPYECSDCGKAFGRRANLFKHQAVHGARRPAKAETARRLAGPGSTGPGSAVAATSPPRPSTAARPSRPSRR
# UniProt A6NCL7: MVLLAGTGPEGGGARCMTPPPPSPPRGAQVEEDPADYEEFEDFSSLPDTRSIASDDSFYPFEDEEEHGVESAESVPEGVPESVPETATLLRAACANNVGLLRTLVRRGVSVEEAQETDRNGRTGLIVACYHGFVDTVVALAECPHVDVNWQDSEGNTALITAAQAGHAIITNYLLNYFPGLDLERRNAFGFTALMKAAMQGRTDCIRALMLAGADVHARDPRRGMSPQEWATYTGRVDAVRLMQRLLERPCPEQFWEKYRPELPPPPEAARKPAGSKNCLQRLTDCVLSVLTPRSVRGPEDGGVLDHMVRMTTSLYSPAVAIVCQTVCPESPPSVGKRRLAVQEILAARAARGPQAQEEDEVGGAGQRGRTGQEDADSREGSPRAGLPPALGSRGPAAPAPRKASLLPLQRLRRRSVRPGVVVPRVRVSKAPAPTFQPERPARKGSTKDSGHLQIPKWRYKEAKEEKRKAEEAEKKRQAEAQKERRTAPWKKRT
# UniProt A6NGK3: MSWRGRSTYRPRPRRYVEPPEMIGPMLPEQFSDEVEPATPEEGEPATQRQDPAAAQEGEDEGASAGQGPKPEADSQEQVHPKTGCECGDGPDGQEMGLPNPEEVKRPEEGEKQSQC
# UniProt A2RRD8: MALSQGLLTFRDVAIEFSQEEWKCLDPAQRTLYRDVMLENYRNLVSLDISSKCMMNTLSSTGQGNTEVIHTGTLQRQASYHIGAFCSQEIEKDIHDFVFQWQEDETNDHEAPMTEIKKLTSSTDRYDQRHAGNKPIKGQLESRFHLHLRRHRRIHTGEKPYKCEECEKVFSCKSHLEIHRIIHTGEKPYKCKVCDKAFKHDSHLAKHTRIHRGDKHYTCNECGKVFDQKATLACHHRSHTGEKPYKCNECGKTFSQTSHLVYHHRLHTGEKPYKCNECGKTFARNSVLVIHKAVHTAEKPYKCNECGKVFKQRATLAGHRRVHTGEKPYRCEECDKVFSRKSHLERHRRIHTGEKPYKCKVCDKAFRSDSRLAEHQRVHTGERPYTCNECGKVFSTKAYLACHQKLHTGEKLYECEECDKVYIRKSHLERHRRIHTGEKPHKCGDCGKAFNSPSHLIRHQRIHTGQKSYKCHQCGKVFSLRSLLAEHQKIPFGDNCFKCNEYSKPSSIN
# UniProt A2VDJ0: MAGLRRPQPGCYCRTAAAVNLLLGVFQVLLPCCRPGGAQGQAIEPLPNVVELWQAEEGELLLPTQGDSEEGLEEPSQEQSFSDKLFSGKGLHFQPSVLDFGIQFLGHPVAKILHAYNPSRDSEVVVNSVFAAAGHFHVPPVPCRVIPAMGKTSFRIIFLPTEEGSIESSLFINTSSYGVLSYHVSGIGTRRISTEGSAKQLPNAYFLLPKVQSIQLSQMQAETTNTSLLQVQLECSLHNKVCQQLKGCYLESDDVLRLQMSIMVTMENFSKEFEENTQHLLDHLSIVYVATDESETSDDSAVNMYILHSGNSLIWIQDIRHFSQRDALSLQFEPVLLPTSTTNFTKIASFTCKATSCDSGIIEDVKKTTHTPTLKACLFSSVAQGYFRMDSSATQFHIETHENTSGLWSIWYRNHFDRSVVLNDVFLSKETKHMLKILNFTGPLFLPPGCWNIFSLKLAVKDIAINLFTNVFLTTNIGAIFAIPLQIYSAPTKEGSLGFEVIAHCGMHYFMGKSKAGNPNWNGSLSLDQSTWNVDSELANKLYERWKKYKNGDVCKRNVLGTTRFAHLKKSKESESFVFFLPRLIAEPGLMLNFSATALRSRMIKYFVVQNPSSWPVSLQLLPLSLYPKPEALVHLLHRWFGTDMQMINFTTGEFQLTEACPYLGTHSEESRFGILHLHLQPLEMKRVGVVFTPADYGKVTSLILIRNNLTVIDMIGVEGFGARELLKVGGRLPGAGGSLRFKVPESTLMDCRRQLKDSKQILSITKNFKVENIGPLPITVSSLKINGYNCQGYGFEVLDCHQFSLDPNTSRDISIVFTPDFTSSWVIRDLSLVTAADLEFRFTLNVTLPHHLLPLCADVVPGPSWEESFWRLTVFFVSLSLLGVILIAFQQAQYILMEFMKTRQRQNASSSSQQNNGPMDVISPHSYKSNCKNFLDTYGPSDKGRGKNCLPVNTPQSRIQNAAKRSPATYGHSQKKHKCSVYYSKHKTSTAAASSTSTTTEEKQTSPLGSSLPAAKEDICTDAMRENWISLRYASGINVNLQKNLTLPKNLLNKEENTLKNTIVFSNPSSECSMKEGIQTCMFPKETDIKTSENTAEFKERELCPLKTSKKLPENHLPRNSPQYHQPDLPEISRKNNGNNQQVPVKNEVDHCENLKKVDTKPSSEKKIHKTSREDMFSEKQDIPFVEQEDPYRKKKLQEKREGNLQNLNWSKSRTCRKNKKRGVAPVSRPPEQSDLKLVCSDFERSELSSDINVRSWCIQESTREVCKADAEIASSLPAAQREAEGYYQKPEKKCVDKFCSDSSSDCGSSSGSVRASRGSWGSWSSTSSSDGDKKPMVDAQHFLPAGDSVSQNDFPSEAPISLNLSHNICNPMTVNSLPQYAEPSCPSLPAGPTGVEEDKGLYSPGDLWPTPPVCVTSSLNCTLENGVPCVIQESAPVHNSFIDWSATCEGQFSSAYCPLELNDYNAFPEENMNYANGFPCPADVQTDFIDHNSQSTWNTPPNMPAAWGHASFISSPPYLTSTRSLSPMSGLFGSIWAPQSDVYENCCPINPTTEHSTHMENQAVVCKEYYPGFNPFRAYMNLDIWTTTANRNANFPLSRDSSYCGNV
# UniProt A5D8V6: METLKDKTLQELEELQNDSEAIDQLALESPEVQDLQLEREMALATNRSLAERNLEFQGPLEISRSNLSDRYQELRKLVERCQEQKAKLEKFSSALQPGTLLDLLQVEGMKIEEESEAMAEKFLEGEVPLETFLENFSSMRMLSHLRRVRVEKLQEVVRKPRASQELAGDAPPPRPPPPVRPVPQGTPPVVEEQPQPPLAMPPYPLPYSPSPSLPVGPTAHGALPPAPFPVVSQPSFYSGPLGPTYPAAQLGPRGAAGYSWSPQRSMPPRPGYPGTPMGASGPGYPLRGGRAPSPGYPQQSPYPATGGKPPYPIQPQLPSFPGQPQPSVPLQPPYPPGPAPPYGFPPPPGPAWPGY
# Compound: Cc1nc(Nc2ncc(C(=O)Nc3c(C)cccc3Cl)s2)cc(N2CCN(CCO)CC2)n1 [dasatinib]
# Assay: log2 fold change of tryptic peptide abundance, ligand vs vehicle (limited proteolysis) (log2 ratio); higher = more trypsin-susceptible (destabilized)
# Settings: ligand concentration: 5 uM; sample: K562 cleared lysate
row,Target,log2 fold change
1,"A0A1B0GUS4 (peptide sequence: FCKNAEEFTKK, peptide start residue: 136), A0A1B0GUS4",0.224
2,"A0A3B3IS91 (peptide sequence: AAAAQPIGHPDALER, peptide start residue: 86), A0A3B3IS91",-0.011
3,"UniProt A6NER0 (peptide sequence: KGDVPPPAK, peptide start residue: 354)",0.0278
4,"A0AVK6 (peptide sequence: DSTDATTEK, peptide start residue: 557)",-0.404
5,"UniProt A6NDI0 (peptide sequence: IDGEDGLFLLGCVKNDIQR, peptide start residue: 371)",0.103
6,"POM121C (peptide sequence: DRGTLPDR, peptide start residue: 193) (UniProt A8CG34)",-0.123
7,"DDX11L8 (peptide sequence: QILYLLEK, peptide start residue: 443) (UniProt A8MPP1)",-0.426
8,"UniProt A6NI28 (peptide sequence: CLAEPLMTYK, peptide start residue: 463)",0.434
9,"ZFP92 (peptide sequence: QLPGADPQGGK, peptide start residue: 107) (UniProt A6NM28)",0.311
10,"CNOT1 (peptide sequence: ECHLLVLK, peptide start residue: 1686) (UniProt A5YKK6)",-0.225
11,"UniProt A2RU48 (peptide sequence: KLQDIKEK, peptide start residue: 98)",-0.159
12,"UniProt A6NIE6 (peptide sequence: AAPLLHTR, peptide start residue: 2)",0.0838
13,"UniProt A6NCL7 (peptide sequence: KAEEAEKK, peptide start residue: 469)",-0.178
14,"KRBA1 (peptide sequence: RLQENPGAWKR, peptide start residue: 296) (UniProt A5PL33)",-0.597
15,"UNC119B (peptide sequence: AAAAASAAGPGGLVAGKEEK, peptide start residue: 8) (UniProt A6NIH7)",0.0605
16,"ZNF316 (peptide sequence: RTHTGERPFPCPECGAR, peptide start residue: 739) (UniProt A6NFI3)",0.644
17,"CRPPA (peptide sequence: VTSEALGHAGR, peptide start residue: 315) (UniProt A4D126)",0.333
18,"EFCAB7 (peptide sequence: SDATFSSQK, peptide start residue: 7) (UniProt A8K855)",-1.06
19,"UniProt A6NGK3 (peptide sequence: PEEGEKQSQC, peptide start residue: 107)",-0.0574
20,"A0AVT1 (peptide sequence: NFALLGVGTSK, peptide start residue: 478)",0.139
21,"CCDC66 (peptide sequence: SPSSPVPVVK, peptide start residue: 794) (UniProt A2RUB6)",-0.581
22,"UniProt A2RRD8 (peptide sequence: NSVLVIHK, peptide start residue: 285)",0.477
23,"UniProt A0MZ66 (peptide sequence: VKELEEQLENETLHK, peptide start residue: 287)",0.132
24,"KIAA0922 (peptide sequence: SWCIQESTR, peptide start residue: 1257) (UniProt A2VDJ0)",0.0854
25,"UniProt A4FU28 (peptide sequence: ISHATEELETYR, peptide start residue: 1029)",0.366
26,"UniProt A6NJ78 (peptide sequence: FLLGISMTER, peptide start residue: 332)",-0.241
27,"A0A6I8PU40 (peptide sequence: LFLLLWHPALGAQARPPR, peptide start residue: 27), A0A6I8PU40",-0.0738
28,"A0A494C030 (peptide sequence: RPADTGPVWVPR, peptide start residue: 165)",-0.117
29,"VPS37C (peptide sequence: EMALATNR, peptide start residue: 40) (UniProt A5D8V6)",-0.0711
30,"ZSWIM8 (peptide sequence: AAAELALSCLPHAHALNPNEIQR, peptide start residue: 1357) (UniProt A7E2V4)",-0.251

# Given with tabs: entries from further up.
row	Target	log2 fold change
9	ZFP92 (peptide sequence: QLPGADPQGGK, peptide start residue: 107) (UniProt A6NM28)	0.311
10	CNOT1 (peptide sequence: ECHLLVLK, peptide start residue: 1686) (UniProt A5YKK6)	-0.225
